Measured values published in the supplement of paper PMC6821926, “Diaminoquinazoline MMV675968 from Pathogen Box inhibits Acinetobacter baumannii growth through targeting of dihydrofolate reductase” (Scientific Reports, 2019).
± gives the uncertainty stated by the source. Some of the results follow.

Legend:
[1] = tested on: Acinetobacter baumannii Mahidol; assay: percent growth relative to DMSO-treated control; higher = less growth inhibition; details: 10 µM; 18 h
[2] = tested on: Acinetobacter baumannii Naval-81; assay: as above; details: 10 µM; 18 h

Structure (SMILES) | percent growth [1] | percent growth [2]
CCc1nc2ccccc2n1CC(O)COc1cc(C)ccc1Cl (centres undefined) | 106 ± 13% | 86 ± 11%
O=C1COCc2ccc(Br)cc2N1Cc1ccc(C(F)(F)F)cc1 | 101 ± 15% | 98 ± 10%
CS(=O)(=O)c1ccccc1C(=O)N(Cc1ccccc1)c1ccccc1 | 98.1 ± 9.9% | 88.7 ± 7%
O=C(NCCN1CCCC1)c1cc(NCCN2CCOCC2)nc2ccc(Cl)cc12 | 95.1 ± 5.4% | 86 ± 15%
Clc1cccc(C(c2ccc(CN3CCNCC3)cc2)n2ccnc2)c1 (centres undefined) | 86.1 ± 9.4% | 87.9 ± 10%
c1ccc(-c2nc(NC3CCCCC3)cc(C3CC3)n2)nc1 | 104 ± 12% | 71.6 ± 4.3%
COc1ccc2nccc(NC(=O)C3CCN(CCc4ccc(Cl)cc4)CC3)c2n1 | 44.9 ± 38% | 104 ± 11%
CCC(=O)Nc1ccccc1C(=O)Nc1ccccn1 | 95.9 ± 8.1% | 83.7 ± 26%
CC(C(=O)Nc1ccc2oc(-c3ccncc3)nc2c1)c1ccccc1 (centres undefined) | 86.9 ± 15% | 101 ± 8.8%
Cc1cc(OCC(=O)NCc2ccccc2)c2cc(Br)ccc2n1 | 95.1 ± 13% | 104 ± 15%
COc1cc(C2=NCCN2)ccc1-c1cn(-c2cccc(C3=NCCN3)c2)nn1 | 92.9 ± 7.5% | 89.5 ± 3%
CCOc1ccc(OCC(=O)Nc2cc(C)cc(C)c2)cc1 | 91 ± 9.3% | 87 ± 17%
CS(=O)(=O)Cc1nc2ccccc2oc1=O | 53.8 ± 29% | 84 ± 6%
CCOc1ccccc1NC(C)C(=O)Nc1cc(C(F)(F)F)ccc1N1CCOCC1 (centres undefined) | 99.9 ± 8.7% | 76.9 ± 41%
COc1cc(C2=NCCN2)cc2cc(-c3ccc(C4=NCCN4)cc3)oc12 | 98.6 ± 4.1% | 113 ± 40%
NC(CC(=O)c1ccc(Cl)cc1Cl)C(Cl)(Cl)Cl (centres undefined) | 93.5 ± 14% | 84.8 ± 21%
CCOC(=O)c1c(NC(=O)c2c(F)c(F)c(F)c(F)c2F)sc(C(N)=O)c1C | 105 ± 15% | 87.4 ± 31%
O=C(C1CCN(c2cc(-n3cccc3)ncn2)CC1)N1CCc2ccccc2C1 | 89.2 ± 9.9% | 91.6 ± 11%
Cc1cccc(-c2nc(Nc3ccncn3)c3sccc3n2)n1 | 92.4 ± 3.1% | 82.6 ± 32%
Cc1nn2c(=O)c3c([nH]c2c1-c1ccc(Cl)cc1)CCCC3 | 101 ± 12% | 75.8 ± 26%
COc1ccc(Oc2ccc([C@@H](C)N(C)c3ncc4c(N)nc(N)nc4n3)cc2)cc1 | 95.3 ± 4.8% | 104 ± 12%
CC[C@@H]([C@H](C)O)n1ncn(-c2ccc(N3CCN(c4ccc(OC[C@@H]5CO[C@@](Cn6cncn6)(c6ccc(F)cc6F)C5)cc4)CC3)cc2)c1=O | 51.1 ± 27% | 106 ± 34%

One compound at a time, as listed above. Order of values: percent growth [1] | percent growth [2]
Clc1cccc(C(c2ccc(CN3CCNCC3)cc2)n2ccnc2)c1 (centres undefined) is entered as 86.1 ± 9.4% | 87.9 ± 10%
COc1ccc2nccc(NC(=O)C3CCN(CCc4ccc(Cl)cc4)CC3)c2n1 is entered as 44.9 ± 38% | 104 ± 11%
CS(=O)(=O)Cc1nc2ccccc2oc1=O is entered as 53.8 ± 29% | 84 ± 6%
CC[C@@H]([C@H](C)O)n1ncn(-c2ccc(N3CCN(c4ccc(OC[C@@H]5CO[C@@](Cn6cncn6)(c6ccc(F)cc6F)C5)cc4)CC3)cc2)c1=O is entered as 51.1 ± 27% | 106 ± 34%

Further structures

Structure (SMILES) | percent growth [1] | percent growth [2]
CC(=O)Nc1ccc(-c2noc(CC3CCCN(Cc4cccc(F)c4C)C3)n2)cc1 (centres undefined) | 93.6 ± 7.8% | 98.7 ± 10%
CCn1ncc2c(NC3CCOCC3)c(CNC(=O)c3ccnn3C)c(C)nc21 | 101 ± 4% | 90.7 ± 10%
COc1ccc(C2=NN(C3CCCCCC3)C(=O)[C@@H]3CC=CC[C@H]23)cc1OCCCCOc1ccc(-c2nn[nH]n2)cc1 | 79.7 ± 73% | 86.6 ± 9.4%
N=C(N)c1ccc(-c2cc(-c3ccccc3)on2)cc1 | 86.9 ± 14% | 87.2 ± 4.8%
CC(C)(C(=O)Nc1ccc(F)cc1)n1cc(-c2ccccc2F)cn1 | 90.6 ± 10% | 97.8 ± 16%
Clc1ccc(CN2CCN(C3=NCCN3)CC2)cc1Cl | 89 ± 7.9% | 101 ± 20%
NCC(=O)N1CCn2c(nc(-c3ccccc3)c2Nc2ccc3c(c2)OCO3)C1 | 85.8 ± 5% | 101 ± 4%
C[C@H]1COc2c(N3CCN(C)CC3)c(F)cc3c(=O)c(C(=O)O)cn1c23 | -0.0716 ± 0.12% | 38.4 ± 46%
CS(=O)(=O)N1CCC(CCn2nc(Cc3cccc4ccccc34)c3c(N)ncnc32)CC1 | 73.9 ± 34% | 80.3 ± 13%
Cc1cc(C(=O)Nc2ccc(-c3ccccc3)cc2)no1 | 68.6 ± 30% | 95.3 ± 18%
CC(=O)NC[C@@H]1CN(c2ccc(N3CCOCC3)c(F)c2)C(=O)O1 | 106 ± 27% | 86.1 ± 4.8%
COc1cc(CN2CCC3(C=Cc4ccccc43)CC2)cc2c1OCO2 | 102 ± 5.8% | 88.7 ± 16%
CNC(=O)c1nn(C)c2c1C(C)(C)Cc1cnc(Nc3ccc(N4CCN(C)CC4)cc3)nc1-2 | 85.5 ± 52% | 93.7 ± 7.3%
O=C(Nc1cnc2ccccc2c1)c1cccc(-n2cnnn2)c1 | 103 ± 6.9% | 86 ± 23%
Nc1ccc(C(=O)Nc2ccc(-c3nc4ccccc4o3)cc2)cc1 | 95.3 ± 13% | 67.1 ± 22%
Cc1cccc(NC(=O)c2cc(S(=O)(=O)N(C)c3ccc(F)cc3)ccc2Cl)n1 | 98.9 ± 16% | 118 ± 38%
CC(C)(C)OC(=O)N1CCN(c2nccc(-c3ccc(-c4ccc(Cl)cc4)s3)n2)CC1 | 105 ± 17% | 96 ± 5.6%
COc1ccc2nc(C)cc(OCC(=O)NCc3ccccc3)c2c1 | 91.3 ± 29% | 115 ± 28%
Clc1cccc(CO[C@H]2CCc3ccccc3[C@@H]2n2ccnn2)c1 | 92.6 ± 12% | 87.6 ± 6.4%
CC(C)C(NC(=O)Cc1cccc2ccccc12)C(=O)Nc1cccc(C#N)c1 (centres undefined) | 118 ± 26% | 89.5 ± 11%
CCCNC(=O)N1CCC2(CC1)CC(=O)c1cc(C)ccc1O2 | 94 ± 10% | 98.1 ± 7.5%
O=S(=O)(c1ccc(Cl)cc1)N1CCN(C(=S)NCc2ccco2)CC1 | 48.6 ± 43% | 99.7 ± 40%

As entered above:
`Cc1cccc(NC(=O)c2cc(S(=O)(=O)N(C)c3ccc(F)cc3)ccc2Cl)n1` | percent growth [1]: 98.9 ± 16%
`N=C(N)c1ccc(-c2cc(-c3ccccc3)on2)cc1` | percent growth [1]: 86.9 ± 14%
`NCC(=O)N1CCn2c(nc(-c3ccccc3)c2Nc2ccc3c(c2)OCO3)C1` | percent growth [2]: 101 ± 4%

Next part:

Structure (SMILES) | percent growth [1] | percent growth [2]
CO[C@H]1/C=C/O[C@@]2(C)Oc3c(C)c(O)c4c(O)c(/c(=C/NN5CCN(C)CC5)c(O)c4c3C2=O)=N\C(=O)/C(C)=C\C=C/[C@H](C)[C@H](O)[C@@H](C)[C@@H](O)[C@@H](C)[C@H](OC(C)=O)[C@@H]1C | 0.172 ± 0.67% | 0%
c1coc(CNc2nc(N3CCCCC3)nc3ccccc23)c1 | 108 ± 11% | 90.5 ± 9%
COc1ccccc1C(C)NCC(=O)Nc1cc(C(F)(F)F)ccc1Cl (centres undefined) | 67.3 ± 30% | 102 ± 34%
O=C(Nc1ccc(N2CCNCC2)nc1)c1oc(-c2ccccc2)nc1C(F)(F)F | 92.1 ± 9.5% | 91.2 ± 3.6%
CCNC(=O)C(C)Nc1nc(-c2cccnc2)nc2sc(C)c(C)c12 (centres undefined) | 101 ± 16% | 107 ± 23%
CC1=NN(c2nc3ccccc3s2)C(=O)C1Cc1cccc2ccccc12 (centres undefined) | 59.1 ± 10% | 84.2 ± 23%
Cc1ccc(NC(=O)c2nc[nH]c2C(=O)Nc2nc3ccccc3[nH]2)c(C)c1 | 69.8 ± 22% | 75.1 ± 5.9%
COc1ccc(S(=O)(=O)Nc2ccc(CN3CCN(C(=O)c4cccc(C#N)c4)CC3)cc2)cc1 | 92.9 ± 8.2% | 110 ± 58%
O=C(Nc1cccc(-c2ccc(NCCCN3CCCC3)nc2)c1)c1ccccc1 | 72.5 ± 48% | 75.2 ± 16%
NS(=O)(=O)c1cncc(-c2ccc3nccc(-c4cn[nH]c4)c3n2)c1 | 99.9 ± 12% | 94.1 ± 8.3%
COc1cc(OC)cc(C(=O)NCC2Cc3cc(Cl)cc(-c4ccncc4)c3O2)c1 (centres undefined) | 89.7 ± 6.3% | 94.2 ± 19%
Cc1ccc(C(=O)Nc2ccc(S(=O)(=O)O)c3cc(S(=O)(=O)O)cc(S(=O)(=O)O)c23)cc1NC(=O)c1cccc(NC(=O)Nc2cccc(C(=O)Nc3cc(C(=O)Nc4ccc(S(=O)(=O)O)c5cc(S(=O)(=O)O)cc(S(=O)(=O)O)c45)ccc3C)c2)c1 | 77.3 ± 29% | 90.4 ± 22%
Cc1ccc(NC(=O)c2cc(S(=O)(=O)NC(C)(C)C)ccc2C)nc1 | 92.5 ± 5.9% | 104 ± 25%
CCN(CC)CCCCCCNc1cc(OC)cc2c(C)ccnc12 | 88.8 ± 24% | 75.5 ± 40%
Brc1c(-c2ccc3c(c2)OCO3)nc2ncccn12 | 94.3 ± 17% | 75.2 ± 22%
c1cncc(NCc2ccc(-c3cc4ccncc4cc3OC3CCNCC3)s2)c1 | 93 ± 6.8% | 107 ± 25%
Nc1nccc2ccc(Oc3ccncc3)cc12 | 96.1 ± 2% | 87.5 ± 28%
Nc1ccc2ncnc(Nc3ccc(OCc4cccc(F)c4)c(Cl)c3)c2c1 | 87 ± 18% | 65.1 ± 60%
Clc1ccc(-n2cc(COc3ccnc4ccccc34)nn2)cc1 | 73 ± 20% | 96.5 ± 4.1%
O=C(C(Cc1c[nH]c2ccccc12)NS(=O)(=O)c1ccc(Cl)cc1)N1CCCCC1 (centres undefined) | 129 ± 27% | 98.6 ± 40%
CNc1cc(C)nc(C2CN(C(=O)c3n[nH]c4ccccc34)CCO2)c1 (centres undefined) | 97.4 ± 21% | 98.4 ± 6.5%
O=C(NCc1nnc2n1CCCCC2)c1ccc(-c2ccc(F)cc2)o1 | 102 ± 11% | 88.1 ± 2.4%

Structure (SMILES) | percent growth [1] | percent growth [2]
O=C(NC1CCN(c2ccnc3ccccc23)C1)c1cccc(C(F)(F)F)c1 (centres undefined) | 94.5 ± 8.6% | 79.3 ± 12%
Cc1ccc(-c2cc(C(=O)Nc3cccnc3)c3cc(Br)ccc3n2)cc1 | 92.5 ± 6.1% | 97.6 ± 22%
O=C1[C@@H](Oc2ccccc2)[C@@H](c2ccc(Cl)cc2)N1CCn1cnc2c(NCc3ccccc3)ncnc21 | 100 ± 10% | 103 ± 14%
CCN(CC)C(=O)N1CCN(C)CC1 | 97 ± 7.8% | 70.4 ± 36%
O=C([C@@H](c1ccc(Cl)cc1)c1cccnc1)N1CCN(c2ccc(C(F)(F)F)cc2)CC1 | 94.5 ± 4.7% | 88.5 ± 14%
Cc1cc(NC(=O)c2ccc(S(=O)(=O)N(Cc3ccccc3)C(C)C)cc2)no1 | 84.1 ± 3% | 94.9 ± 13%
CC1CC1C(=O)NC1CCN(CC2(c3ccccc3)CCCCC2)CC1 (centres undefined) | 81.8 ± 24% | 105 ± 43%
CC(C)(CN)c1nc(-c2ccc(Cl)c(O)c2)c(-c2ccnc(N)n2)[nH]1 | 107 ± 4.8% | 67.4 ± 24%
COc1cccc(NC(=O)c2c(NC(=O)c3cccnc3)sc3c2CCC3)c1 | 105 ± 12% | 85.4 ± 24%
Cc1cccc(Cn2ccc(NC(=O)c3ccc4c(c3)OCO4)n2)c1 | 46.5 ± 47% | 105 ± 30%
CC(C)(C)n1nc(Cc2cccc3ccccc23)c2c(N)ncnc21 | 96.4 ± 2.6% | 84.8 ± 58%
Cc1ccc2oc(-c3cc(NC(=O)Cc4ccccc4)ccc3Cl)nc2c1 | 86.4 ± 35% | 84.9 ± 19%
CC(=O)N1CCN(c2ccc(Oc3ccc(Cl)cc3O)cc2)CC1 | 90.1 ± 9.2% | 80.1 ± 17%
Brc1cncc(-c2cc(NCCCn3ccnc3)nc(-c3ccccc3)n2)c1 | 79.1 ± 22% | 100 ± 29%
COc1cc(C2=NCCN2)ccc1-n1cc(-c2cccc(C3=NCCN3)c2)nn1 | 95.4 ± 9.3% | 95.6 ± 23%
CNC(=O)C1Cc2c([nH]c3cc(Cl)ccc23)C2(CCN(CCc3ccccc3)CC2)N1 (centres undefined) | 93.8 ± 9.1% | 91.6 ± 10%
CCC(Sc1nc2ccccc2o1)C(=O)Nc1nccs1 (centres undefined) | 102 ± 11% | 70.7 ± 20%
O=C(c1ccco1)N(CCCn1ccnc1)c1nc2c(Cl)cccc2s1 | 90.4 ± 18% | 76 ± 13%
O=C(NC1CC1)c1ccc(N2CCC(Cc3ccccc3)CC2)nc1 | 95.4 ± 33% | 82.4 ± 19%
NC(=O)c1cc(Br)ccc1OCCOc1ccccc1 | 86.7 ± 9.4% | 90.6 ± 4.2%
O=C(NCCc1ccn(-c2ccccc2)n1)C1CCCCC1 | 98.2 ± 9.9% | 82.4 ± 10%
